Earlier results, collected in patent US20060141024A1, “Synergistic combination kit of alpha,beta-arteether, sulfadoxin and pyrimethamine for treatment of severe/multi-drug resistant cerebral malaria” (COUNCIL OF SIENTIFIC AND INDUSTRIAL RESEARCH, priority 2004, published 2006).
For at least one compound, name, drawing or mass did not settle the structure.

Tested on: P. falciparum
Conditions: cited from earlier work

CCc1nc(N)nc(N)c1-c1ccc(Cl)cc1 [pyrimethamine]
concentration giving 100% inhibition in vitro: 62.5 μmol/lit
